# Experimental data taken from the supplement of paper PMC6411743.
# By UniProt entry, the sequences of proteins in these tests, tags left out. Where a name states a change or a piece, a line headed by the entry shows the natural chain unless it says otherwise.
# UniProt O00244: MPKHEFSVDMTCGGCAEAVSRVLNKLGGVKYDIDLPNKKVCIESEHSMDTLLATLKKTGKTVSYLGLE
# UniProt Q9H000: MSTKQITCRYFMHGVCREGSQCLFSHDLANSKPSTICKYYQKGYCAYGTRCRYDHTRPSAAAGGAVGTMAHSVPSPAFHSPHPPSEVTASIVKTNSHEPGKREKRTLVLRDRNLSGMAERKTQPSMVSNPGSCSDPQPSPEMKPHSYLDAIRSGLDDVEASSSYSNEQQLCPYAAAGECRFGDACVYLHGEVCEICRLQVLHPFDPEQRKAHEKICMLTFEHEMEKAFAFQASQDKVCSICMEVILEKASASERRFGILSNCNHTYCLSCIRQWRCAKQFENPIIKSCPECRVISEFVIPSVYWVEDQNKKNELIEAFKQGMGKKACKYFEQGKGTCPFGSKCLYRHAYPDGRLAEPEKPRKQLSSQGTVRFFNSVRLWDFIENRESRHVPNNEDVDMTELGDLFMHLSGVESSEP
# UniProt O95071: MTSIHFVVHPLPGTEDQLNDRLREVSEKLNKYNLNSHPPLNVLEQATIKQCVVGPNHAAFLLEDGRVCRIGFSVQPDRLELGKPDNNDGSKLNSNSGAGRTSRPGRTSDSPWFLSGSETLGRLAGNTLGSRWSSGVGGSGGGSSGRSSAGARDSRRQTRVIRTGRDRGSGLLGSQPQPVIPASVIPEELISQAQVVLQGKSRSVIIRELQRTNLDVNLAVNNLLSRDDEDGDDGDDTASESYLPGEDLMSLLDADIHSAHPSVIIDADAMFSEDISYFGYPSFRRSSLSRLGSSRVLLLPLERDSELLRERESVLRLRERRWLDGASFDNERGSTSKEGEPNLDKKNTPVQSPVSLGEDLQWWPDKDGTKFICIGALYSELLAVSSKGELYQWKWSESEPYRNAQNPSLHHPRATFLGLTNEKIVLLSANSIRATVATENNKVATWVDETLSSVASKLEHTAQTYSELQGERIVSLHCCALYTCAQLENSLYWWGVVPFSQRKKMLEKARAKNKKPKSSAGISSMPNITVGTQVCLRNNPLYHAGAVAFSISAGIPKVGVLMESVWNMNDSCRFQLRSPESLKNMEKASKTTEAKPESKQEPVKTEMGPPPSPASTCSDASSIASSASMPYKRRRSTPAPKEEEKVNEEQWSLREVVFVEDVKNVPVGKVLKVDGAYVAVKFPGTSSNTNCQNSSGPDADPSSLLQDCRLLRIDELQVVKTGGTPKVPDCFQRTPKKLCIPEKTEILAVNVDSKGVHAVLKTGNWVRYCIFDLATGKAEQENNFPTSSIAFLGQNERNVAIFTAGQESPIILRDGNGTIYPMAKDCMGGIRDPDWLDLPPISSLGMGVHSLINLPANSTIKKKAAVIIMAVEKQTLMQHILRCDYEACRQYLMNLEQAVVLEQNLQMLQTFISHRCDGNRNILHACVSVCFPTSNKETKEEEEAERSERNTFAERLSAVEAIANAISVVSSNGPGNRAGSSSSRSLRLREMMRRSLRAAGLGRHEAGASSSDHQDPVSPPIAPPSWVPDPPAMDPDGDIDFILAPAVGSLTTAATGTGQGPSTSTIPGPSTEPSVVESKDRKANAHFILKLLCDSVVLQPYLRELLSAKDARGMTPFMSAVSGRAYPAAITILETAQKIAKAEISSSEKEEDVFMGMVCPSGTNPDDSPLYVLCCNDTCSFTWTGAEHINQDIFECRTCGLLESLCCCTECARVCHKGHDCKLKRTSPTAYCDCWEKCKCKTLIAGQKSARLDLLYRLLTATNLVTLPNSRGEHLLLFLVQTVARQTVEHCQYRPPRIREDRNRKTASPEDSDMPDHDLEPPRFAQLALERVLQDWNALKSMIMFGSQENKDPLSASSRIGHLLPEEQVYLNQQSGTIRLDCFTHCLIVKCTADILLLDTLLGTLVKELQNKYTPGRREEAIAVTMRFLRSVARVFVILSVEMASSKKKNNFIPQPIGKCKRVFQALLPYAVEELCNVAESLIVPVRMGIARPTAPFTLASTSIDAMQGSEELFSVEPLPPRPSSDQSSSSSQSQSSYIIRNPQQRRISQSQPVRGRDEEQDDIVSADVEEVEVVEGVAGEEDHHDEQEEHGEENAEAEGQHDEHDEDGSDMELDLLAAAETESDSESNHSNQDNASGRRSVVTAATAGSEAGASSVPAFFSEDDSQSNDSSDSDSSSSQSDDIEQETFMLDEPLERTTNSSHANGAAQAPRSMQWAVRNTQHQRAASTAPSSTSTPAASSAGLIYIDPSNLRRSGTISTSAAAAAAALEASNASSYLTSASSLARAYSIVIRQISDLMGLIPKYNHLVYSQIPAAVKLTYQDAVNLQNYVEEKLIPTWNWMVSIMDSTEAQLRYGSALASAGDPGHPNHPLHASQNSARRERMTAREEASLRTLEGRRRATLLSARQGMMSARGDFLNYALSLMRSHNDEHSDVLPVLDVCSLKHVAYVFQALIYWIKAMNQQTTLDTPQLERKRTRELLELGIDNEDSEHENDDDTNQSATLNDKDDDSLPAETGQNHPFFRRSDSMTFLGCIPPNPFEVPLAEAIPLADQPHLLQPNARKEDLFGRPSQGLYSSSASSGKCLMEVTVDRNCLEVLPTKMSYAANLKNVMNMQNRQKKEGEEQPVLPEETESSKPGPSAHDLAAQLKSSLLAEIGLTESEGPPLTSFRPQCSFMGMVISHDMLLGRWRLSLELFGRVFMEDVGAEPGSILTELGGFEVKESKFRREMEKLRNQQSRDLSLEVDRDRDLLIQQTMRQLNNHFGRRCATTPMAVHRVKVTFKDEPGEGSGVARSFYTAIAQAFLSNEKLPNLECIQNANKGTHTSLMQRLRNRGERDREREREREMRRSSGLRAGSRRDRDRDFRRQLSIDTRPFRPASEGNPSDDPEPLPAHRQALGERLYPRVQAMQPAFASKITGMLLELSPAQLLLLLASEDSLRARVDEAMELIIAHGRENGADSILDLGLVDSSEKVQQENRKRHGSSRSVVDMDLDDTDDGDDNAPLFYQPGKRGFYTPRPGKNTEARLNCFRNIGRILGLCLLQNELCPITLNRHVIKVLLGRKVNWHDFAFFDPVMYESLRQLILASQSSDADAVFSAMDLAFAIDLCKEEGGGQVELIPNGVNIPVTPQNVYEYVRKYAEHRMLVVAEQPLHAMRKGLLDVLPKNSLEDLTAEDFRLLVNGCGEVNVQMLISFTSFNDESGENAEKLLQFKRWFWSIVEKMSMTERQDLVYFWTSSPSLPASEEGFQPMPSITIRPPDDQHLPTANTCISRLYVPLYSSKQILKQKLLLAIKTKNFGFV
# UniProt Q9UKS7: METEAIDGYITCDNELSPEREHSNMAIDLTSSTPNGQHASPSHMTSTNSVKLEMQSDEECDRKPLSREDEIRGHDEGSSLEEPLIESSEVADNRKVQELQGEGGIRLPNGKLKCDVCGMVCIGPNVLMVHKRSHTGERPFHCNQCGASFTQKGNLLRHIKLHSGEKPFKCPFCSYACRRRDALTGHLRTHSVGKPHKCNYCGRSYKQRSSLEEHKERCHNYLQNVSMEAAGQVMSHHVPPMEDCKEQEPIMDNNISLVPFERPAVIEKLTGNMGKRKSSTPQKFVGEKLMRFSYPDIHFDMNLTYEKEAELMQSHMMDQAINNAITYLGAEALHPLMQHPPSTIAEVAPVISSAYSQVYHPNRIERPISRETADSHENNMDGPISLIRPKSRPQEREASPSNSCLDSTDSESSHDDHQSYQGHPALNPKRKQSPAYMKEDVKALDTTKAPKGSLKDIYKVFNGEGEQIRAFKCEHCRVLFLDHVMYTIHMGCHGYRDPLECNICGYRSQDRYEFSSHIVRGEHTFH
# UniProt P98194: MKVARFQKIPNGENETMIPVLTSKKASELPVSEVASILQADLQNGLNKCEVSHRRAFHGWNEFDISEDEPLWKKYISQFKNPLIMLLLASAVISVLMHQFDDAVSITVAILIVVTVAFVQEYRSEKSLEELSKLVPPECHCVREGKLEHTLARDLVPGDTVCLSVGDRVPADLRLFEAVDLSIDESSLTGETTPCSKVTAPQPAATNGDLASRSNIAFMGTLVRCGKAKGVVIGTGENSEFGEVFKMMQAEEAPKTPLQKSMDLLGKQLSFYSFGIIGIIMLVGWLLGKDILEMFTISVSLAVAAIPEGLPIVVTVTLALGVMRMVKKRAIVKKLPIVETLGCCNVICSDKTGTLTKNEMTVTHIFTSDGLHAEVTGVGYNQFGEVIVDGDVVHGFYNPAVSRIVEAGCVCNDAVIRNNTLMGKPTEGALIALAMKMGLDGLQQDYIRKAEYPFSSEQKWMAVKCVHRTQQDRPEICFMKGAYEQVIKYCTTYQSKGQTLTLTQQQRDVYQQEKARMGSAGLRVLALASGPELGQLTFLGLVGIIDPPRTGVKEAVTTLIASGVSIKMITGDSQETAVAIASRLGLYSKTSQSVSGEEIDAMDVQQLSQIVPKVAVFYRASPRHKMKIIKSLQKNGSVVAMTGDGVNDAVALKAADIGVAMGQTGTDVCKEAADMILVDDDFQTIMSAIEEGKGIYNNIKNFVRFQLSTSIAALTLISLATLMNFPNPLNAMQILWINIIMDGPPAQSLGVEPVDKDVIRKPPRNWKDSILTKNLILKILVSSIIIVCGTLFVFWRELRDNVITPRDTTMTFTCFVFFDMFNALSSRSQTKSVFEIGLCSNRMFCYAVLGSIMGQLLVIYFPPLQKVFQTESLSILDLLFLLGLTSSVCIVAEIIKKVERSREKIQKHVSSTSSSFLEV
# UniProt Q9BUN8: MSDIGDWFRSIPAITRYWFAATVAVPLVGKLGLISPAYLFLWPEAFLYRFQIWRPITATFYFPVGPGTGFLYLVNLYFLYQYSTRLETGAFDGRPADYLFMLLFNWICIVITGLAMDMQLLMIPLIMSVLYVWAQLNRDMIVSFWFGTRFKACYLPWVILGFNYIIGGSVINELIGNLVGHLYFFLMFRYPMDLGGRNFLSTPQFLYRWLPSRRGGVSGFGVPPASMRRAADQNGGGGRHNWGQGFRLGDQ
# UniProt P48444: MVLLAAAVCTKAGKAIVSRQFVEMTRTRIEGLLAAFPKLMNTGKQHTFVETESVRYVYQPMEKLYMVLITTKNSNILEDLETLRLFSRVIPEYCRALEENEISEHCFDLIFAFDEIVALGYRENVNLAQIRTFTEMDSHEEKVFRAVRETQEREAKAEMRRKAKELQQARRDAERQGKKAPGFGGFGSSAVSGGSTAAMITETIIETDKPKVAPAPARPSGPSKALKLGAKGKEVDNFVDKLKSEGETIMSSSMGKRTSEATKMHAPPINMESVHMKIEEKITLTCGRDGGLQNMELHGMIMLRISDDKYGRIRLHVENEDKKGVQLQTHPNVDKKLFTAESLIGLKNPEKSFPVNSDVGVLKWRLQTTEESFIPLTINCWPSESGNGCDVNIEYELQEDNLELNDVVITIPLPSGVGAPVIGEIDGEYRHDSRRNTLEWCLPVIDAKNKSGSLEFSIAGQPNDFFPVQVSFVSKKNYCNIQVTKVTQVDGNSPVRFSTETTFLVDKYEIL
# UniProt O60879: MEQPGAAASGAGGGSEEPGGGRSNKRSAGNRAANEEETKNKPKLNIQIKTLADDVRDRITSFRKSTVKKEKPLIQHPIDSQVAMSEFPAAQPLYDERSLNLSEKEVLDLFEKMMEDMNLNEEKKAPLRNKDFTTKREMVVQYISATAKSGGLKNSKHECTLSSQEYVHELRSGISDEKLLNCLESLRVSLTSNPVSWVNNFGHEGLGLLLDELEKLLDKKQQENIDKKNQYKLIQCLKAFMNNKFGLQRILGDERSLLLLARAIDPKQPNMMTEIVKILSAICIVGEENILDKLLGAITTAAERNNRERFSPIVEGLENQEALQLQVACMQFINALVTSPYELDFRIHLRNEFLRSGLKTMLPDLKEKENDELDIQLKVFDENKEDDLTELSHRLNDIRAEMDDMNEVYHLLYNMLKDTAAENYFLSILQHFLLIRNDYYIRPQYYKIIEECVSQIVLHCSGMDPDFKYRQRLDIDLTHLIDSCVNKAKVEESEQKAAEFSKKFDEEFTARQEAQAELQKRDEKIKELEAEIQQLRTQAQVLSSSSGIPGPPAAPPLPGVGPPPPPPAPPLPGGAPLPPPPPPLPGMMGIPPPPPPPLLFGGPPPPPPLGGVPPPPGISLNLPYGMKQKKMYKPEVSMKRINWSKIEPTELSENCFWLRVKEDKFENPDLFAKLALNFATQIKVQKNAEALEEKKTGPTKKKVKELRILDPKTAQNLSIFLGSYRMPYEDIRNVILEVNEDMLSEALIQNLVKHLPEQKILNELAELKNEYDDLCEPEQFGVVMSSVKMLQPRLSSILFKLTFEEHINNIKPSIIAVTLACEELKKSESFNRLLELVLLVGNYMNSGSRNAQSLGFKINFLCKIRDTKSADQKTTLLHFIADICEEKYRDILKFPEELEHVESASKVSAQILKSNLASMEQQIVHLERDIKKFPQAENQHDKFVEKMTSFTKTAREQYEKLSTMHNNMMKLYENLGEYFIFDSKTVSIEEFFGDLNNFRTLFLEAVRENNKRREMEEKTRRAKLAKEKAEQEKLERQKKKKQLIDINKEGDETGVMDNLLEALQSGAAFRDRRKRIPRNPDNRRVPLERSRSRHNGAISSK
# ± gives the standard deviation of the averaged measurements. The list shows a part of the results.
# Compound: Nc1nc2c(ncn2[C@@H]2O[C@H](COP(=O)(O)OP(=O)(O)OP(=O)(O)O)[C@@H](O)[C@H]2O)c(=O)[nH]1 [guanosine triphosphate]
# Test: NP40-soluble protein abundance relative to vehicle (solubility fold change) (ratio); higher = more soluble protein in presence of GTP
# Settings: concentration: 0.1mM
# In short: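 Data come from three independent experiments in which Dounce-homogenised Jurkat crude lysate was treated at eight concentrations from 0.1 to 10 mM. Treatment ran 10 min at room temperature and then 3 min at 37 °C, after which 0.8% NP40 and benzonase were added for 60 min at 4 °C before ultracentrifugation. The supernatant underwent TMT labelling and LC-MS/MS, and vsn-normalised intensities were expressed as fold change against the detergent-processed vehicle in each replicate.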
row,Target,NP40-soluble protein abundance
1,B7ZBM8 and related entries (UniProt O14662),0.991 ± 0.059
2,E5RIH5 and related entries (UniProt Q6NXR4),1.02 ± 0.014
3,A8MT02 and related entries (UniProt P14678),1.06 ± 0.13
4,D6RER5 and related entries (UniProt Q9NVA2),1.04 ± 0.12
5,E5RGN3 and related entries (UniProt O00244),0.855 ± 0.11
6,D6RHU3 and related entries (UniProt P55212),1.05 ± 0.056
7,D6R9Z7 and related entries (UniProt P15954),1.01 ± 0.21
8,C9J494 and related entries (UniProt Q9H000),0.976 ± 0.011
9,E7EMW7 and related entries (UniProt O95071),1.09 ± 0.081
10,A8K7Q2 and related entries (UniProt P11142),0.97 ± 0.091
11,E7EMA9 and related entries (UniProt Q32M88),1.15 ± 0.044
12,B4DWF2 and related entries (UniProt Q9UKS7),0.976 ± 0.026
13,D6R938 and related entries (UniProt Q13557),1 ± 0.11
14,B4DKB2 and related entries (UniProt P42892),1.03 ± 0.081
15,C9JPE1 and related entries (UniProt O43772),1.08 ± 0.11
16,E5RJF5 and related entries (UniProt P08133),0.944 ± 0.012
17,D6RAN4 and related entries (UniProt P32969),0.965 ± 0.085
18,A8MUS3 and related entries (UniProt P62750),0.928 ± 0.051
19,A8MXP9 and related entries (UniProt P43243),0.954 ± 0.028
20,B1AHR1 and related entries (UniProt Q9UH03),1.04 ± 0.061

# Same assay, conditions: concentration: 0.5mM
row,Target,NP40-soluble protein abundance
1,C9K025 and related entries (UniProt P18077),1.15 ± 0.29
2,B4E2Q0 and related entries (UniProt P98194),1.01 ± 0.061
3,B7Z9U0 and related entries (UniProt Q9UFF9),0.977 ± 0.13
4,B4E1G1 and related entries (UniProt Q9BUN8),1.02 ± 0.016
5,C9J8Q1 and related entries (UniProt Q9UMS0),0.867 ± 0.13
6,B1AH77 and related entries (UniProt P15153),0.983 ± 0.046
7,B0YIW6 and related entries (UniProt P48444),1.08 ± 0.078
8,B4DGU4 and related entries (UniProt P35222),0.98 ± 0.087
9,B7ZBK4 and related entries (UniProt Q92664),1.06 ± 0.12
10,C9J6U3 and related entries (UniProt O60879),1 ± 0.04
11,C9J2Y1 and related entries (UniProt P49116),1.01 ± 0.036
12,C9JCC6 and related entries (UniProt Q14919),0.704 ± 0.098
13,B4DDD6 and related entries (UniProt Q9UJU6),0.946 ± 0.049
14,B4DJ62 and related entries (UniProt Q99719),1.13 ± 0.049
15,D6RIH7 and related entries (UniProt Q9UM22),0.931 ± 0.14
16,A6NIW2 and related entries (UniProt Q5JSL3),1.11 ± 0.12
17,C9IY68 and related entries (UniProt Q9BQ75),1.03 ± 0.083
18,B8ZZU8 and related entries (UniProt Q15370),0.888 ± 0.029
19,B7ZBM8 and related entries (UniProt O14662),0.9563 ± 0.0062
20,E5RIH5 and related entries (UniProt Q6NXR4),1 ± 0.045
21,A8MT02 and related entries (UniProt P14678),1.06 ± 0.13
22,D6RER5 and related entries (UniProt Q9NVA2),1.03 ± 0.12
23,E5RGN3 and related entries (UniProt O00244),0.884 ± 0.083
24,D6RHU3 and related entries (UniProt P55212),1.01 ± 0.045
25,D6R9Z7 and related entries (UniProt P15954),0.887 ± 0.051
26,C9J494 and related entries (UniProt Q9H000),0.995 ± 0.006
27,E7EMW7 and related entries (UniProt O95071),1.19 ± 0.12
28,A8K7Q2 and related entries (UniProt P11142),0.982 ± 0.086
29,E7EMA9 and related entries (UniProt Q32M88),1.05 ± 0.17
30,B4DWF2 and related entries (UniProt Q9UKS7),0.988 ± 0.029
